From publication PMC12431657, “Discovery and mechanistic insights of dibenzoylmethane as a broad spectrum inhibitor of coronavirus” (PLOS Pathogens, 2025)
Where a name gives a salt, the structure may show the parent alone. Read-outs that look alike come from different tables or passages of the source. In all, about 3,300 compounds went through this assay and about 95 (3%) showed an effect of 50% or more. This is one part of the list.

System: HCoV-229E
Set-up: species or system Huh-7; HTS, protection from HCoV-229E induced cell death, luminescent cell viability (CellCounting-Lite 2.0), inhibition rate
Conditions: 24 h post infection, 1 h compound pre-incubation, 10 µM, inhibitor

Structure (SMILES)	229E Inhibition rate	229E Inhibition rate (229E Inhibition rate, 24 h)
COc1cc(-c2coc3cc4c(c(O)c3c2=O)OCO4)cc(O)c1OC [Dichotomitin]	53.3%	
CCc1cccc(C)c1O [2-Ethyl-6-methylphenol]	20.7%	
COc1ccc(-c2cc(=O)c3c(OC)c(OC)c(OC)c(OC)c3o2)cc1OC [Nobiletin]	24.9%	
COc1ccc2cc3[n+](cc2c1OC)CCc1cc2c(cc1-3)OCO2 [Berberine (chloride hydrate)]		34%
c1cc2c(c3c1CC1c4cc5c(cc4CCN1C3)OCO5)OCO2 (racemic) [(±)-Stylopine]	46.8%	
COc1cc2oc(-c3ccc(O)c(O)c3)cc(=O)c2c(O)c1OC [Cirsiliol]	27.5%	
O=C(O)c1ccc(=O)oc1 [Coumalic acid]	13.5%	
C/C=C(/C)C(=O)O[C@H]1[C@H](OC(C)=O)[C@]2(CO)[C@H](O)C[C@]3(C)C(=CC[C@@H]4[C@@]5(C)CC[C@H](O[C@@H]6O[C@H](C(=O)O)[C@@H](O[C@@H]7O[C@H](CO)[C@@H](O)[C@H](O)[C@H]7O)[C@H](O)[C@H]6O[C@@H]6O[C@H](CO)[C@@H](O)[C@H](O)[C@H]6O)[C@](C)(CO)[C@@H]5CC[C@]43C)[C@@H]2CC1(C)C [Escin IB]	8%	
CC(C)=CCc1cc2c(cc1O)O[C@H](c1ccc(O)cc1)CC2=O [Bavachin]	16.7%	
O=Cc1ccccc1C(=O)O [2-Carboxybenzaldehyde]	7.1%	
CCC[C@@H]1C[C@@H](C(=O)N[C@@H]([C@H]2O[C@H](SC)[C@H](O)[C@@H](O)[C@H]2O)[C@@H](C)O)N(C)C1 [Lincomycin (hydrochloride monohydrate)]	16.8%	
CCCCCCCCOC(C)=O [Octyl acetate]	9.9%	
COc1ccc(/C=C/c2cc(O)cc(O[C@@H]3O[C@H](CO)[C@@H](O)[C@H](O)[C@H]3O)c2)cc1O [Rhapontin]	18.3%	
C=C[C@H]1[C@H](O[C@@H]2O[C@H](CO)[C@@H](O)[C@H](O)[C@H]2O)OC=C(C(=O)OC)[C@H]1CCOC(=O)c1cc(O)c(O)c(O)c1 [Cornuside]	20.1%	
N[C@@H](Cc1ccc(O)c([N+](=O)[O-])c1)C(=O)O [3-Nitro-L-tyrosine]	8%	
O=C(O)c1c[nH]c(=O)[nH]c1=O [2,4-Dihydroxypyrimidine-5-carboxylic Acid]	0%	
CC(C)CCC[C@@H](C)[C@H]1CC[C@H]2[C@@H]3CC=C4C[C@@H](OS(=O)(=O)O)CC[C@]4(C)[C@H]3CC[C@]12C [Cholesteryl sulfate (sodium)]	7.6%	

Quoted from above (2 entries):
Structure (SMILES)	229E Inhibition rate	229E Inhibition rate (229E Inhibition rate, 24 h)
CC(C)=CCc1cc2c(cc1O)O[C@H](c1ccc(O)cc1)CC2=O [Bavachin]	16.7%	
O=Cc1ccccc1C(=O)O [2-Carboxybenzaldehyde]	7.1%	
